# Source: the supplement of paper PMC12067093, “Discovery and optimisation of a covalent ligand for TRIM25 and its application to targeted protein ubiquitination” (Chemical Science, 2025)
# Amino acid sequences for entries named in this document (tags omitted). A change or cut given only in a name is not applied to a line headed by its entry.
# UniProt P16152: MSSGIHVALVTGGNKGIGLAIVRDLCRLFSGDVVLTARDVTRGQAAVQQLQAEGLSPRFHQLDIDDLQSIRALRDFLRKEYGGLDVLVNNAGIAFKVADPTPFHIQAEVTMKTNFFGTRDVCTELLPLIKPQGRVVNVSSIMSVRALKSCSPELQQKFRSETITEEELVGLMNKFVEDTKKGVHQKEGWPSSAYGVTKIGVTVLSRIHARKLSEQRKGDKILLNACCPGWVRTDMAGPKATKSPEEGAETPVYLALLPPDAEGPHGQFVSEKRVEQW
# UniProt A6NC98: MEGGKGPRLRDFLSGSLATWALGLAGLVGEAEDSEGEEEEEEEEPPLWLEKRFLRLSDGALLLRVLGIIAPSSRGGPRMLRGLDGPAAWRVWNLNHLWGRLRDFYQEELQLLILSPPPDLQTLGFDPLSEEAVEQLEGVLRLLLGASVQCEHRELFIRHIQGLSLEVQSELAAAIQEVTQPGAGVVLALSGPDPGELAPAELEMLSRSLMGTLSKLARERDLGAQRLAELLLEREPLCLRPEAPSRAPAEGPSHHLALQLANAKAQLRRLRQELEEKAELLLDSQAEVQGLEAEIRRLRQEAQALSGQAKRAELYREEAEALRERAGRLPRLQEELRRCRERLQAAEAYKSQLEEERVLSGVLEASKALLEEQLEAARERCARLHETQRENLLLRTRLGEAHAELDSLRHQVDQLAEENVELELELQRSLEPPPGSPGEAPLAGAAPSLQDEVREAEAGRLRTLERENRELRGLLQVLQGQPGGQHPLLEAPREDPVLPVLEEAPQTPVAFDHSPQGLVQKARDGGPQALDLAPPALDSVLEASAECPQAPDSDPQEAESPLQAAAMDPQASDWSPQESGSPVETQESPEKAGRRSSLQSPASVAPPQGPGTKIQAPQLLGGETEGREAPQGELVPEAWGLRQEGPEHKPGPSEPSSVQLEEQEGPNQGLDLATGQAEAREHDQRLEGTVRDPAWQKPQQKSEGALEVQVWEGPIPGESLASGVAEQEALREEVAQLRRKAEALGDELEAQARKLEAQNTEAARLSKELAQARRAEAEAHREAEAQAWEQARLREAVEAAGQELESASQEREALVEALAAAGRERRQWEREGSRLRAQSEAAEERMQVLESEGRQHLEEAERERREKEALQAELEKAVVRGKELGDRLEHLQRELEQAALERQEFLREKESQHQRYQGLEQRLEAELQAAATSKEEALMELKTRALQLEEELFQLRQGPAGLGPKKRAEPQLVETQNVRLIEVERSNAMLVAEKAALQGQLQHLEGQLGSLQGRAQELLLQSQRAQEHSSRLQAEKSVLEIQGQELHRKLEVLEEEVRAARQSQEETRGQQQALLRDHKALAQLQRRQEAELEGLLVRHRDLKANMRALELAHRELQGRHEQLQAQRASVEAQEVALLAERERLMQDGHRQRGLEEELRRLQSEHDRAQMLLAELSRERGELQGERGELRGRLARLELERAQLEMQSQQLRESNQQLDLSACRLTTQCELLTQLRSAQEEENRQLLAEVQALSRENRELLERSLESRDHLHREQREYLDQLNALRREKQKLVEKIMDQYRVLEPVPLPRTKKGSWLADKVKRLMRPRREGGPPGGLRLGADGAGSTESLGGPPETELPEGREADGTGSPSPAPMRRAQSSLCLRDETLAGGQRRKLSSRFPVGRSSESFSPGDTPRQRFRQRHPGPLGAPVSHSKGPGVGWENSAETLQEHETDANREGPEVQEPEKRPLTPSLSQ
# UniProt P49368: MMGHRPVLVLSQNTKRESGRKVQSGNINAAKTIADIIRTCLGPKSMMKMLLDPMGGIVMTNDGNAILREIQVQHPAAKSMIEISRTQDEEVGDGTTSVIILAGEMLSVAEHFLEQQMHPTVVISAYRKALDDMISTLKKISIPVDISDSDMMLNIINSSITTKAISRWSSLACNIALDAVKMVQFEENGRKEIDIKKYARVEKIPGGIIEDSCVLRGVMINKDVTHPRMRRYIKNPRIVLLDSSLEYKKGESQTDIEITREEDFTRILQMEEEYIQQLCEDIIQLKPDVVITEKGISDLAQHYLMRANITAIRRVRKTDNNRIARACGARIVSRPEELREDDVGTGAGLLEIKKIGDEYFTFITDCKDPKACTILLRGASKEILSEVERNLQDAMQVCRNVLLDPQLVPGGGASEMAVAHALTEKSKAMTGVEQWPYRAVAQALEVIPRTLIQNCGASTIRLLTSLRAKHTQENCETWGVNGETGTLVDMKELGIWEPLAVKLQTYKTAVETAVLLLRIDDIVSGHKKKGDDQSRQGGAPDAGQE
# UniProt Q9ULG6: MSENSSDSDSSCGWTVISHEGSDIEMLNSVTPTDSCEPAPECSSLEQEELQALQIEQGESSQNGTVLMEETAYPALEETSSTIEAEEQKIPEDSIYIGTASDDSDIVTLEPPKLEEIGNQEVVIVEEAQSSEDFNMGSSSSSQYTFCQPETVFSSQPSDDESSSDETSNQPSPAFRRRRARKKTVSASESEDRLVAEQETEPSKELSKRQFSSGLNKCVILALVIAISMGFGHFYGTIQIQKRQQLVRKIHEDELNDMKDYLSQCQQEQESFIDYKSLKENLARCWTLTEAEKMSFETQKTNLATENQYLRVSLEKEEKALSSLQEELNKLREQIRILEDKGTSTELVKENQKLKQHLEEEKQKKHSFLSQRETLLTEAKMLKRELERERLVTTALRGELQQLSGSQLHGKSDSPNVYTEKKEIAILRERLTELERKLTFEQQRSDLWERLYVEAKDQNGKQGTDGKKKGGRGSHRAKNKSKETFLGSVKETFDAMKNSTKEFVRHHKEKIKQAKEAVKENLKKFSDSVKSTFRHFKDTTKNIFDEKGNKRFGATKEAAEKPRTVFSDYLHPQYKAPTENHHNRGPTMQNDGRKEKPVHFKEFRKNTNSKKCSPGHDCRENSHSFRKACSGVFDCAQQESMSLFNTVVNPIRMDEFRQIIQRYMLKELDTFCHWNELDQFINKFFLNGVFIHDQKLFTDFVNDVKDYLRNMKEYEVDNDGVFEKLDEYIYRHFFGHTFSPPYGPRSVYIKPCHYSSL
# UniProt P07384: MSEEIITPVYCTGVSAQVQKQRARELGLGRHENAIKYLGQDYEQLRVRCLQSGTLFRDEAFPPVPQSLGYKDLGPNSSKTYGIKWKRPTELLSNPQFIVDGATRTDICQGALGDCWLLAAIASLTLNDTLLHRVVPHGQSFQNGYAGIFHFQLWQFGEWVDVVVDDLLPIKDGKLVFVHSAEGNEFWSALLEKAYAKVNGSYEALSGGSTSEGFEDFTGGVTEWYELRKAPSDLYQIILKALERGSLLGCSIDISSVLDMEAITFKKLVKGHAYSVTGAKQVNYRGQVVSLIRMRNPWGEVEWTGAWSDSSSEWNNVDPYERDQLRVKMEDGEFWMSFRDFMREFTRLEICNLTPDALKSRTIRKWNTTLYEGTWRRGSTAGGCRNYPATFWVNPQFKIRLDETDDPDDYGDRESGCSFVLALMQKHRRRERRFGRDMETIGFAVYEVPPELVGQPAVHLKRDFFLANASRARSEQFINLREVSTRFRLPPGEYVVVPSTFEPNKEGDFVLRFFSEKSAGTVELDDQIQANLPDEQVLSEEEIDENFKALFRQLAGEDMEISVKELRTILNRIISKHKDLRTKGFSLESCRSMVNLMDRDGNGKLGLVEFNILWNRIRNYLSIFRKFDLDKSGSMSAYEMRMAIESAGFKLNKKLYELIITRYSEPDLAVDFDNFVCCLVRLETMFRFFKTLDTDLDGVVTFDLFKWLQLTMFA
# UniProt P42574: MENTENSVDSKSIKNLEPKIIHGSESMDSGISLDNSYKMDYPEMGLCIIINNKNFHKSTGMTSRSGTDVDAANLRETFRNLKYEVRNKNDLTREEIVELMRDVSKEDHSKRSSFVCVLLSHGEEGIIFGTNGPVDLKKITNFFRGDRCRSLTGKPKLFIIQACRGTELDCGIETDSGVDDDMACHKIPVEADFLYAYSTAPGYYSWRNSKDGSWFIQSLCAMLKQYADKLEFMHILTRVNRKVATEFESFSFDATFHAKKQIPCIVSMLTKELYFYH
# UniProt Q8IX12: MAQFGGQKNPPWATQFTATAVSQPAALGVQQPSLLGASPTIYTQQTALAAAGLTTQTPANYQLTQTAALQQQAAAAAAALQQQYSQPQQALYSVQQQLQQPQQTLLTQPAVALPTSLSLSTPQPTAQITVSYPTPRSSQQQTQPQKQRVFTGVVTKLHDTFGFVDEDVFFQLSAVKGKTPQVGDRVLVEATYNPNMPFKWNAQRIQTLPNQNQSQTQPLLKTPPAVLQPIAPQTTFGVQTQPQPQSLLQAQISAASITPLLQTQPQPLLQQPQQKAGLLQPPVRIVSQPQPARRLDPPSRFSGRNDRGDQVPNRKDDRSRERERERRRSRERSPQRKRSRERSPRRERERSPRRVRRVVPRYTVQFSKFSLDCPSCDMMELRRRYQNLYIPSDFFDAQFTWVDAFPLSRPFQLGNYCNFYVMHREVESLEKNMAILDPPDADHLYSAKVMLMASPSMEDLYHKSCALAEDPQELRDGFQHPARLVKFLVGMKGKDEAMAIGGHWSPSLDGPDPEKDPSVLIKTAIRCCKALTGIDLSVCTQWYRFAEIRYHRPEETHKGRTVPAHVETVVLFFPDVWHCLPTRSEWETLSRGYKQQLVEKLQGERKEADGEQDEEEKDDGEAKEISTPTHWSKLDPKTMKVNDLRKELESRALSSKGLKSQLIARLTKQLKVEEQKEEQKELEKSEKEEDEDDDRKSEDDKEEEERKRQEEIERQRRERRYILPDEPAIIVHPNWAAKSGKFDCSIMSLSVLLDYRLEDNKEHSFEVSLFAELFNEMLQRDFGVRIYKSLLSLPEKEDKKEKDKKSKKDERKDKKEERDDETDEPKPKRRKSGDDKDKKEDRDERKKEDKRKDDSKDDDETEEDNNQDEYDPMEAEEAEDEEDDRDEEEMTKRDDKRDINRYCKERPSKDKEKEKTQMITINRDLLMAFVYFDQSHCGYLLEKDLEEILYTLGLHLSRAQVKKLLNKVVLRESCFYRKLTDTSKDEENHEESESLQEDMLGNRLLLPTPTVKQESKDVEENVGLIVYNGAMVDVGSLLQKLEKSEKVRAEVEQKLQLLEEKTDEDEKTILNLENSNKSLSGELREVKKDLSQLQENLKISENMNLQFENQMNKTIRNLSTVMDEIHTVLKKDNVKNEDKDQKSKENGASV
# UniProt P55212: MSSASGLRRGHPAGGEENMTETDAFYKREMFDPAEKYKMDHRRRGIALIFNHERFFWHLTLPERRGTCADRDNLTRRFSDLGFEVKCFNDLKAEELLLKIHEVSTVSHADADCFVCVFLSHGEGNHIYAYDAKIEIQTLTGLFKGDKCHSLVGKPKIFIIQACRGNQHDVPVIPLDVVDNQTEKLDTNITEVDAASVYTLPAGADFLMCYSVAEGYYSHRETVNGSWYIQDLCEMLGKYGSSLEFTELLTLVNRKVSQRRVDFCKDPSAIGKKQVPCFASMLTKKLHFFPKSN
# UniProt P42575: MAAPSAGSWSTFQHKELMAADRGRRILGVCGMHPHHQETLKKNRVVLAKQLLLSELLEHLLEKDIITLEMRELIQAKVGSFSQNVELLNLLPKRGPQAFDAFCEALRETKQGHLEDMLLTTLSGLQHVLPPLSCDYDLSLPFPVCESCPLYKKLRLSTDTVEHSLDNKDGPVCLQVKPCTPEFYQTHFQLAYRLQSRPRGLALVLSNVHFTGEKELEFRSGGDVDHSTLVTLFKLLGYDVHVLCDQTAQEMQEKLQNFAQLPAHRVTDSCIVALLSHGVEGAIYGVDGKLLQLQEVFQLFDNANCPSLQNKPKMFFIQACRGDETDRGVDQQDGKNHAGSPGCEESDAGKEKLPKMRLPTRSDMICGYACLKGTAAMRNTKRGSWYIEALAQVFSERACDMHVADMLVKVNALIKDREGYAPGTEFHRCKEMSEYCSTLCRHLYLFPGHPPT
# UniProt Q567U6, whole entry: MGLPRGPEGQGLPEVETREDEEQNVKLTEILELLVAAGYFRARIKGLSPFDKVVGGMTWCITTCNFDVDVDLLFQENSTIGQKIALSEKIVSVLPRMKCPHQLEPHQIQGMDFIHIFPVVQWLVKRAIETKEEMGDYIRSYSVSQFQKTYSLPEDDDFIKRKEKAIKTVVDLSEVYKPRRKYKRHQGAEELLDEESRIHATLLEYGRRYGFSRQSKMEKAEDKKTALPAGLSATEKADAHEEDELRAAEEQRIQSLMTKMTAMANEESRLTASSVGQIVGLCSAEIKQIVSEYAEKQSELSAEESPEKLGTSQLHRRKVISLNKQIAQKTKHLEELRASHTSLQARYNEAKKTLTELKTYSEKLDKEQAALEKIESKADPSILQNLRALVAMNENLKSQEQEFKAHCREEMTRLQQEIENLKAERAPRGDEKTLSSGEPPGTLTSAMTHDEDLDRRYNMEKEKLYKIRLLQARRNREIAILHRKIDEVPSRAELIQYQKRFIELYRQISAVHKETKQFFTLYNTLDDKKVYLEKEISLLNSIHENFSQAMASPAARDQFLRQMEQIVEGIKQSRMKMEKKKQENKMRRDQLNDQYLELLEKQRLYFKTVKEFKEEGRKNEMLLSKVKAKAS
# The list shows a part of the results.
# Compound: Cc1cc(ccc1-c1ccccc1)C(=O)N1CCCN(CC1)C(=O)CCl [compound 10]
# Test: probe-labelled cysteine peptide fold change vs DMSO (competition) (log2 fold change); higher = less target engagement (more negative = stronger competition)
# Conditions: 10 µM; THP-1; incubation time: 4 h
# 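Note: competitive profiling in live THP-1 cells: cysteine peptides tagged with an iodoacetamide desthiobiotin (IA-DTB) probe, intensity after compound treatment relative to DMSO-treated cells.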
row,Target,probe-labelled cysteine peptide fold change
1,CBR1_P16152_122_DVCTELLPLIKPQGR (UniProt P16152),-0.0593
2,CCT4_P50991_252_IGLIQFCLSAPK (UniProt P50991),-0.00184
3,CCDC88B_A6NC98_1228_LTTQCELLTQLR (UniProt A6NC98),-0.202
4,CARS_P49589_335_ASKPGEPSWPCPWGK (UniProt P49589),-0.0902
5,CCAR2_Q8N163_238_VHLTPYTVDSPICDFLELQR (UniProt Q8N163),-0.114
6,CARS_P49589-3_81_HIEALLGSPCGK (UniProt P49589),0.154
7,CAPZA1_P52907_157_TIDGQQTIIACIESHQFQPK (UniProt P52907),0.238
8,CAP1_Q01518_427_NSLDCEIVSAK (UniProt Q01518),-0.184
9,CASP8_Q14790_287_NGTHLDAGALTTTFEELHFEIKPHDDCTVEQIYEILK (UniProt Q14790),-0.0677
10,CCT3_P49368_455_TLIQNCGASTIR (UniProt P49368),-0.0189
11,CCT4_P50991_295_KTGCNVLLIQK (UniProt P50991),-0.241
12,CARS_P49589_55_VTWYCCGPTVYDASHMGHAR (UniProt P49589),0.0441
13,CASP1_P29466_362_LIEHMQEYACSCDVEEIFR (UniProt P29466),0.155
14,CCPG1_Q9ULG6_672_ELDTFCHWNELDQFINK (UniProt Q9ULG6),-0.0179
15,CAPN7_Q9Y6W3_704_WSGQSAGGCGNFQETHK (UniProt Q9Y6W3),-0.0984
16,CBR1_P16152_122_DVCTELLPLIK (UniProt P16152),0.109
17,CASP1_P29466_285_VIIIQACR (UniProt P29466),-0.0493
18,CAST_P20810_408_AAAPAPVSEAVCR (UniProt P20810),-0.379
19,CAPN1_P07384_351_LEICNLTPDALK (UniProt P07384),-0.0154

row,Target,probe-labelled cysteine peptide fold change
1,CARD9_Q9H257_168_LKEECEAGSR (UniProt Q9H257),0.296
2,CCDC117_Q8IWD4_81_EEEEDDDCPVR (UniProt Q8IWD4),-0.106
3,CCNY_Q8ND76_39_EDTGCNLQHISDRENIDDLNMEFNPSDHPR (UniProt Q8ND76),-0.177
4,CASP3_P42574_220_DGSWFIQSLCAMLK (UniProt P42574),-0.437
5,CCAR1_Q8IX12_465_SCALAEDPQELRDGFQHPAR (UniProt Q8IX12),-0.264
6,CAPN2_P17655_301_WNDNCPSWNTIDPEER (UniProt P17655),0.0916
7,CARS_P49589_525_ALVSQCNLYMAAR (UniProt P49589),-0.00667
8,CAPN7_Q9Y6W3_548_ESTCIHSTWDAK (UniProt Q9Y6W3),0.237
9,CASP6_P55212_277_KQVPCFASMLTK (UniProt P55212),0.00971
10,CAPN2_P17655_301_WNDNCPSWNTIDPEERER (UniProt P17655),-0.159
11,CARD9_Q9H257_454_GCLAGGGSPK (UniProt Q9H257),-0.148
12,CASP2_P42575_440_EMSEYCSTLCR (UniProt P42575),-0.252
13,CCAR2_Q8N163_644_PLSSGGEEEEKPRGEASEDLCEMALDPELLLLR (UniProt Q8N163),0.345
14,CCDC93_Q567U6_99_CPHQLEPHQIQGMDFIHIFPVVQWLVK (UniProt Q567U6),0.246
15,CBFB_Q13951_107_APMILNGVCVIWK (UniProt Q13951),0.0757
16,CASP8_Q14790_312+313_IYQLMDHSNMDCFICCILSHGDK (UniProt Q14790),0.0393
17,CAST_P20810_661_KPADDQDPIDALSGDLDSCPSTTETSQNTAK (UniProt P20810),0.116
18,CC2D1B_Q5T0F9_634_CLLFSK (UniProt Q5T0F9),-0.14

# Same assay, conditions: 50 µM; THP-1; incubation time: 4 h
row,Target,probe-labelled cysteine peptide fold change
1,CBR1_P16152_122_DVCTELLPLIKPQGR (UniProt P16152),-0.0026
2,CCT4_P50991_252_IGLIQFCLSAPK (UniProt P50991),-0.0885
3,CCDC88B_A6NC98_1228_LTTQCELLTQLR (UniProt A6NC98),0.324
4,CARS_P49589_335_ASKPGEPSWPCPWGK (UniProt P49589),-0.216
5,CCAR2_Q8N163_238_VHLTPYTVDSPICDFLELQR (UniProt Q8N163),0.0774
6,CARS_P49589-3_81_HIEALLGSPCGK (UniProt P49589),-0.384
7,CAPZA1_P52907_157_TIDGQQTIIACIESHQFQPK (UniProt P52907),0.0986
8,CAP1_Q01518_427_NSLDCEIVSAK (UniProt Q01518),0.00381
9,CASP8_Q14790_287_NGTHLDAGALTTTFEELHFEIKPHDDCTVEQIYEILK (UniProt Q14790),-0.185
10,CCT3_P49368_455_TLIQNCGASTIR (UniProt P49368),0.0901
11,CCT4_P50991_295_KTGCNVLLIQK (UniProt P50991),0.0584
12,CARS_P49589_55_VTWYCCGPTVYDASHMGHAR (UniProt P49589),-0.0376
13,CASP1_P29466_362_LIEHMQEYACSCDVEEIFR (UniProt P29466),-0.155
14,CCPG1_Q9ULG6_672_ELDTFCHWNELDQFINK (UniProt Q9ULG6),0.518
15,CAPN7_Q9Y6W3_704_WSGQSAGGCGNFQETHK (UniProt Q9Y6W3),-0.113
16,CBR1_P16152_122_DVCTELLPLIK (UniProt P16152),0.509
17,CASP1_P29466_285_VIIIQACR (UniProt P29466),-0.265
18,CAST_P20810_408_AAAPAPVSEAVCR (UniProt P20810),-0.127
19,CAPN1_P07384_351_LEICNLTPDALK (UniProt P07384),0.169

row,Target,probe-labelled cysteine peptide fold change
1,CARD9_Q9H257_168_LKEECEAGSR (UniProt Q9H257),-0.0223
2,CCDC117_Q8IWD4_81_EEEEDDDCPVR (UniProt Q8IWD4),-0.0532
3,CCNY_Q8ND76_39_EDTGCNLQHISDRENIDDLNMEFNPSDHPR (UniProt Q8ND76),0.00973
4,CASP3_P42574_220_DGSWFIQSLCAMLK (UniProt P42574),0.0855
5,CCAR1_Q8IX12_465_SCALAEDPQELRDGFQHPAR (UniProt Q8IX12),-0.235
6,CAPN2_P17655_301_WNDNCPSWNTIDPEER (UniProt P17655),0.0041
7,CARS_P49589_525_ALVSQCNLYMAAR (UniProt P49589),-0.0417
8,CAPN7_Q9Y6W3_548_ESTCIHSTWDAK (UniProt Q9Y6W3),0.423
9,CASP6_P55212_277_KQVPCFASMLTK (UniProt P55212),-0.323
10,CAPN2_P17655_301_WNDNCPSWNTIDPEERER (UniProt P17655),-0.451
11,CARD9_Q9H257_454_GCLAGGGSPK (UniProt Q9H257),-0.0852
12,CASP2_P42575_440_EMSEYCSTLCR (UniProt P42575),-0.704
13,CCAR2_Q8N163_644_PLSSGGEEEEKPRGEASEDLCEMALDPELLLLR (UniProt Q8N163),0.244
14,CCDC93_Q567U6_99_CPHQLEPHQIQGMDFIHIFPVVQWLVK (UniProt Q567U6),0.0898
15,CBFB_Q13951_107_APMILNGVCVIWK (UniProt Q13951),0.0712
16,CASP8_Q14790_312+313_IYQLMDHSNMDCFICCILSHGDK (UniProt Q14790),-0.506
17,CAST_P20810_661_KPADDQDPIDALSGDLDSCPSTTETSQNTAK (UniProt P20810),0.0539
18,CC2D1B_Q5T0F9_634_CLLFSK (UniProt Q5T0F9),-0.0501
